One sequence from publication PMC5996148 can be followed below.

Some of the results follow.

Holding throughout (test): protein microarray (ProtoArray v5.0), streptavidin-Alexa Fluor 647
What all share (settings): 3'-biotin; 20 mM Tris (pH 7.5), 5 mM MgCl2, 100 mM KCl, 0.1% Tween-20, A/T-rich and random oligonucleotide blockers; temperature not stated; high values mean tight binding

For test [1], the system named is USP53 (human).
Test [2] deals with UV excision repair protein RAD23 homolog A (human).
For test [3], the system named is UXS1 (human).
Test [4] concerns Ubiquilin-4 (human).
Test [5] relates to Ubiquilin-like protein (human).
Test [6] relates to Ubiquinone biosynthesis protein COQ9, mitochondrial (human).
The subject of test [7] is Ubiquitin carboxyl-terminal hydrolase 24 (human).
The test system of test [8] is Ubiquitin-conjugating enzyme E2 Z (human).
Test [9] deals with Uncharacterized aarF domain-containing protein kinase 5 (human).
Test [10] relates to Uncharacterized protein C11orf48 (human).

“GGGAGGCTGAGGCAGG [G4-1 biotinylated (PQS2)]”: the binding signal is -0.309 z-score in test [1]; -0.302 z-score in test [2]; -0.25 z-score in [3]; -0.348 z-score in test [4]; -0.307 z-score in test [5]; -0.319 z-score in test [6]. The binding signal in test [7] was -0.338 z-score; in [8] it was -0.305 z-score; in test [9], -0.335 z-score; in test [10], -0.337 z-score.
